# Source: PMC7819943, “Rice protein-binding microarrays: a tool to detect cis-acting elements near promoter regions in rice”
# Amino acid sequences for entries named in this document (tags omitted).
# UniProt Q0JBA9, entry or part of it: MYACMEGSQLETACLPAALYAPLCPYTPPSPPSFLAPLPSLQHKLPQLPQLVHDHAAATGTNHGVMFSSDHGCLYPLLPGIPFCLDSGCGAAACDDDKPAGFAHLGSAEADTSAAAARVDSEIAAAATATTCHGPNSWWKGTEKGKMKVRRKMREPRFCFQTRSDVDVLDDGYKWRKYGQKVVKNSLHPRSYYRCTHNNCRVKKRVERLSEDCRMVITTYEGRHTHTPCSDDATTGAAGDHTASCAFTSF
# This is one part of the list.
# Target: OsWRKY34 (Oryza sativa, UniProt Q0JBA9 1-250)
# Experiment: protein-binding microarray (RPBM); PBS, 2% BSA, 51.3 ng/ul salmon testes DNA, 50 uM zinc acetate, 200 nM TF, 25 C, 1 h; high values mean tight binding
# Settings: protein: recombinant; tags: N-terminal polyhistidine and DsRed monomer fusion (pET32a); label: CyDye5-dUTP incorporated in the synthesized complementary strand; 3' TTTTT single-stranded linker to array surface; dsDNA, one strand shown
# Summary of the method: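 Using Ni–NTA, transcription factors fused N-terminally to polyhistidine and DsRed were purified after expression in E. coli BL21-CodonPlus. These were incubated at 200 nM with a blocked, double-stranded custom Agilent array for 1 h at 25 °C in a buffer containing 50 µM zinc acetate, and the array was washed. The binding signal is per-feature fluorescence intensity (arbitrary units) on an Axon 4000B scanner.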
row,Sequence,binding signal
1,GGACTGCTGCAAGATTTGTGTATAATTACTTTTATCTTTCCGGAGTCACCTAGTGCAG,9860 fluorescence intensity (a.u.)
2,AGTTGAGGGATCCGTTGTATCTGGTTTTGCGGTTGAAGGACGGAGTCACCTAGTGCAG,8570 fluorescence intensity (a.u.)
3,TTTCACAAATCCTTTCTATGCAGGTATATAAACATAAATTCGGAGTCACCTAGTGCAG,8200 fluorescence intensity (a.u.)
4,ACTTCTAATGGATTCCAAGTTGGTTGACCCCGAGTTTTTCCGGAGTCACCTAGTGCAG,10800 fluorescence intensity (a.u.)
5,AGCTTTCTAAATATGTTTGTTCTGTGGGCTCTGTTTGATCCGGAGTCACCTAGTGCAG,8190 fluorescence intensity (a.u.)
6,TCTGAAGATGCTTACTTTTTAATACTACTCATTTAGTTTCCGGAGTCACCTAGTGCAG,10400 fluorescence intensity (a.u.)
7,CGTCGTTCCTCGGGTCGCCCCAGTCTCTGATGCTGCCGGCCGGAGTCACCTAGTGCAG,10400 fluorescence intensity (a.u.)
8,AATGCGTGAACTTTTCTTGTGATTTACATAGCGGCAAAATCGGAGTCACCTAGTGCAG,9900 fluorescence intensity (a.u.)
9,CTGACGCGTGCACACGCACACACACATTGCCGTTTTTCACCGGAGTCACCTAGTGCAG,8980 fluorescence intensity (a.u.)
10,TCTACTCGCCGCCAGCCGCTTCGATAAGACCGGACTCCACCGGAGTCACCTAGTGCAG,10600 fluorescence intensity (a.u.)
11,ACAATCCTCGAGCGTACGACCCCACCTGCCCACCTAGAATCGGAGTCACCTAGTGCAG,8150 fluorescence intensity (a.u.)
12,CGTAGTAATGTCTGAATTCACCGCCTTAATCCTGTCACGACGGAGTCACCTAGTGCAG,8450 fluorescence intensity (a.u.)
13,AGGGGTTGGTAATTGGCAGGGAATTCCTCCTTTACTTCGCCGGAGTCACCTAGTGCAG,8450 fluorescence intensity (a.u.)
14,CACGGCCCATCTAAACAAGCCTTTCCACAAGTCAGCGACGCGGAGTCACCTAGTGCAG,8250 fluorescence intensity (a.u.)
15,CTAGCTTCTTGGACAGTCTGCTGAAGACTAGCCTCACTACCGGAGTCACCTAGTGCAG,10200 fluorescence intensity (a.u.)
16,ATCTATTCATGTGTTTCAATATTGGCTTGGTCATTCCTAACGGAGTCACCTAGTGCAG,11400 fluorescence intensity (a.u.)
17,TATGACAGTAGCTCGATCAAAGGTGTTCGTTTTTTCTTTCCGGAGTCACCTAGTGCAG,9100 fluorescence intensity (a.u.)
18,CTTTCTTTGACTGTTGCCTTTTATTTTGTGCAGGTTGTATCGGAGTCACCTAGTGCAG,11300 fluorescence intensity (a.u.)
19,CTCTCCCTTATATTTTTGTTTCACTGCACCATCTTTTGGGCGGAGTCACCTAGTGCAG,9370 fluorescence intensity (a.u.)
20,GCCGTCGCCGTCGCCGTCCTCCTCGTTGTCGTTGTCGTCGCGGAGTCACCTAGTGCAG,9000 fluorescence intensity (a.u.)
21,CGTGCCCACGTGGAAAACAACGTTGACCCCACCCGTTAGCCGGAGTCACCTAGTGCAG,10300 fluorescence intensity (a.u.)

row,Sequence,binding signal
1,GGAGGTGTGAAGTTGTTTAAATAAAAATGAAGGGGTCGAGCGGAGTCACCTAGTGCAG,8310 fluorescence intensity (a.u.)
2,GATTTCATCCTCATGGATTCTTCTGAAGTTTCTGGTGCTACGGAGTCACCTAGTGCAG,8120 fluorescence intensity (a.u.)
3,CTCCATCACCACAACAGAAGTTATTACTTTACCTTTCACACGGAGTCACCTAGTGCAG,8730 fluorescence intensity (a.u.)
4,CAAGCAGTAGTTCTTCCCAATATCCACCGCTCGCGACCTCCGGAGTCACCTAGTGCAG,9520 fluorescence intensity (a.u.)
5,ACTAGCACTCACCAGTCAATCTTCAGTCACGGCCCTATTGCGGAGTCACCTAGTGCAG,8650 fluorescence intensity (a.u.)
6,CCAAGTATGGAACCGTTGTTACTTGTCGTTCGCCGGCATCCGGAGTCACCTAGTGCAG,9040 fluorescence intensity (a.u.)
7,TGCGCTGGTAGTGATGATAGTGTTGATGGGTAGGTTTTTTCGGAGTCACCTAGTGCAG,8850 fluorescence intensity (a.u.)
8,AATGATTATAGTGCTGTTGACGGCAATCGGTTGTGAGAATCGGAGTCACCTAGTGCAG,8600 fluorescence intensity (a.u.)
9,CAACTTCCAAGTTCCGATAGCTGGGTTCGTATCTTCATTGCGGAGTCACCTAGTGCAG,8130 fluorescence intensity (a.u.)
10,TCTTCAAAAATCAACTGTAACTAACTTCCTCATTTTTTTCCGGAGTCACCTAGTGCAG,9480 fluorescence intensity (a.u.)
11,CCGTCCTGCTGGCCTCACATCCGACGGCTCATGTCGCATCCGGAGTCACCTAGTGCAG,8910 fluorescence intensity (a.u.)
12,TGGTCGTTTTGGTCATCTAGTTCGTGGTTTGTTCTTAAGACGGAGTCACCTAGTGCAG,9090 fluorescence intensity (a.u.)
13,ATATGAGTTTTACGGGATTCTGATGCTTTCTGTTACTTTTCGGAGTCACCTAGTGCAG,8470 fluorescence intensity (a.u.)
14,ACGCAAACTTCCTCTCTCTCTCTCTTCTCGGCGCGAATCCCGGAGTCACCTAGTGCAG,9160 fluorescence intensity (a.u.)
15,TCTTCACGCCGCCTCCGCTCCTGAGGCCCAGCCGCCGCGCCGGAGTCACCTAGTGCAG,8100 fluorescence intensity (a.u.)
16,CCACATCATCTGCTTCTGTGCGGCCGCTTCTATCGGCCCTCGGAGTCACCTAGTGCAG,9620 fluorescence intensity (a.u.)
17,GAATCCTAGACCCACGCCCGGCGTCCCGCGTCGCGCGCCGCGGAGTCACCTAGTGCAG,8160 fluorescence intensity (a.u.)
18,GCATCATAGCTCGGTTTTCATATCTTTCTTTACAATCACTCGGAGTCACCTAGTGCAG,8830 fluorescence intensity (a.u.)
19,TGGTGGAGAAATGGTCTACTGCGCGCATGATTTTTAGCTTCGGAGTCACCTAGTGCAG,8110 fluorescence intensity (a.u.)
20,GTAGGGAGGGAGGGGTGAGGCGGACACACGAAAAATAGGTCGGAGTCACCTAGTGCAG,13400 fluorescence intensity (a.u.)
21,GCAAACCATTTCCACCGCCACCGTCTCCTCCCGAATTCCGCGGAGTCACCTAGTGCAG,8760 fluorescence intensity (a.u.)

# Quoted from the listing:
# binding signal, TGCGCTGGTAGTGATGATAGTGTTGATGGGTAGGTTTTTTCGGAGTCACCTAGTGCAG reads 8850 fluorescence intensity (a.u.)
# binding signal, TGGTGGAGAAATGGTCTACTGCGCGCATGATTTTTAGCTTCGGAGTCACCTAGTGCAG reads 8110 fluorescence intensity (a.u.)
# binding signal, GTAGGGAGGGAGGGGTGAGGCGGACACACGAAAAATAGGTCGGAGTCACCTAGTGCAG reads 13400 fluorescence intensity (a.u.)
# binding signal, ACGCAAACTTCCTCTCTCTCTCTCTTCTCGGCGCGAATCCCGGAGTCACCTAGTGCAG reads 9160 fluorescence intensity (a.u.)

# Later entries:

row,Sequence,binding signal
1,CCGTATCCTATCGTGCCCTATCCAAACACGCGCAAACACCCGGAGTCACCTAGTGCAG,8970 fluorescence intensity (a.u.)
2,AAGTTGGTTTTTATAGGACGAGAGGAGTACATATTTTTTACGGAGTCACCTAGTGCAG,8180 fluorescence intensity (a.u.)
3,GGGATCATGATGGACAATGGAAACTCCAGCCTGTTTCTCTCGGAGTCACCTAGTGCAG,8320 fluorescence intensity (a.u.)
4,TCGTTCTGTTGCTTCCTTCTAGATTTTCTCCTCTGCCAATCGGAGTCACCTAGTGCAG,15200 fluorescence intensity (a.u.)
5,TCTCAGCGCTCTTTCTGATCACTGATCACAACTTCTCCTCCGGAGTCACCTAGTGCAG,9580 fluorescence intensity (a.u.)
6,GCGCACTGGTGAAGTTTTTTTTTTGTTTGGTCACCTACGGCGGAGTCACCTAGTGCAG,9700 fluorescence intensity (a.u.)
7,CTTTGGGTTATTAACCTTCTTGCGTTTGTTCGGTCGAATTCGGAGTCACCTAGTGCAG,8170 fluorescence intensity (a.u.)
8,CTAGAATTTTTTTCTCCTTTTTTTTCAATGTGCATTTTCTCGGAGTCACCTAGTGCAG,8100 fluorescence intensity (a.u.)
9,TTGCTCTTGTTCATCGCCATCCCTTCATGTGCAAGCCACTCGGAGTCACCTAGTGCAG,8140 fluorescence intensity (a.u.)
10,GTAGGCGTGGCACGGGCGGCGACCACGCGGGCGCGCGCGCCGGAGTCACCTAGTGCAG,12900 fluorescence intensity (a.u.)
11,GGCATGTCATTTTTTATTTTGTGGTTACCTAATGTTTTTCCGGAGTCACCTAGTGCAG,11800 fluorescence intensity (a.u.)
12,GATAAATATCTGCAGGGAGGTGTAGAGGTTGGTGGGTGGGCGGAGTCACCTAGTGCAG,8690 fluorescence intensity (a.u.)
13,ACTCTTGCTTGCTCGCCTTGCCTACCCACGCGGCCACACGCGGAGTCACCTAGTGCAG,8120 fluorescence intensity (a.u.)
14,GTGAAGAATAAAGTCAACGGTTGATTTCAAGAGATACTAACGGAGTCACCTAGTGCAG,10600 fluorescence intensity (a.u.)
15,TGTGCCATCACCAATTCATGGCTACTACGCTGGCTACGCGCGGAGTCACCTAGTGCAG,8660 fluorescence intensity (a.u.)
16,GTTTTCCACTTTTCCACTGTACGTCAGGTCAATCAGCCGCCGGAGTCACCTAGTGCAG,8630 fluorescence intensity (a.u.)
17,GGGTCCCTGTGTCGCCAACCGTCGCGCCGCTGCTTGCATACGGAGTCACCTAGTGCAG,9460 fluorescence intensity (a.u.)
18,GCATACGTCCGTCTCCGAGTCAATTGATTTTTGTGTTTGCCGGAGTCACCTAGTGCAG,8280 fluorescence intensity (a.u.)
19,TTTGCCCACTTCTACCGTGCGGGTCCCACACTGGCATCCACGGAGTCACCTAGTGCAG,8300 fluorescence intensity (a.u.)
20,CTATACTATTAATACCTGGTCTCACATGTCATACACACACCGGAGTCACCTAGTGCAG,8760 fluorescence intensity (a.u.)
21,CTCTCTCTCTCAGTGCTATTTTTTTACCGATCTTTTACTACGGAGTCACCTAGTGCAG,12100 fluorescence intensity (a.u.)

row,Sequence,binding signal
1,AACCACCCCGCGTTTCCAGTCTCCACCACATCAACTCCCCCGGAGTCACCTAGTGCAG,10200 fluorescence intensity (a.u.)
2,TCGTTCCACGTGCATTGACGTGACACTTATTTGATGTTGACGGAGTCACCTAGTGCAG,8230 fluorescence intensity (a.u.)
3,AGGATGCATTTTTCTTGACCTGAATCATGCTTGCTTTGCACGGAGTCACCTAGTGCAG,8400 fluorescence intensity (a.u.)
4,ATATATTGTTTGTCACGCTATGTTTCCCATCATCATTCTTCGGAGTCACCTAGTGCAG,11200 fluorescence intensity (a.u.)
5,TGGTATGTGGAAGCTTCTAGAGGAAAAGGAGGAGGAGGTCCGGAGTCACCTAGTGCAG,10400 fluorescence intensity (a.u.)
6,TCCACTATAAACCTGTCCGTATAATAAATCCTAGTCGTTCCGGAGTCACCTAGTGCAG,8650 fluorescence intensity (a.u.)
7,TGTTGATTATTGTCTTCTGAAGATGAGCATGCTCTGCTCTCGGAGTCACCTAGTGCAG,8320 fluorescence intensity (a.u.)
8,GCCTGGCCCATGCCCTCTCTGCTATAATCTGCACCCTGTCCGGAGTCACCTAGTGCAG,8960 fluorescence intensity (a.u.)
9,AGTGGTTATATGGGCTGTGAAATTCGGATTATCCGCCAAACGGAGTCACCTAGTGCAG,8140 fluorescence intensity (a.u.)
10,ATATCTTCTTGGTTGTTGCCTATTTTATTTAAAACAAATTCGGAGTCACCTAGTGCAG,9960 fluorescence intensity (a.u.)
11,CCTCACATTCTCTCTCCTTTACCATGTGTGTACTTAAAACCGGAGTCACCTAGTGCAG,11100 fluorescence intensity (a.u.)
12,TAATTCCAAGCTTGTTTCACCGACCTGCCAAACTCGATTGCGGAGTCACCTAGTGCAG,9200 fluorescence intensity (a.u.)
13,GATGGCAACGGGATTAGATCACTGTAGATGATCCAAAAACCGGAGTCACCTAGTGCAG,8130 fluorescence intensity (a.u.)
14,ATCGCCACAGGTGTCGGCGATGGGGAGGGGAGGGAGAGGTCGGAGTCACCTAGTGCAG,12000 fluorescence intensity (a.u.)
15,TTTGGTTTAGGTAGCGCATTTCTGCATTTCACTCTTGGTTCGGAGTCACCTAGTGCAG,13300 fluorescence intensity (a.u.)
16,GGCATTTTCCTTTGTTTTATGATTGCTTCTTCTTGTTTTTCGGAGTCACCTAGTGCAG,12500 fluorescence intensity (a.u.)
17,TCTTTCTTTTTTATATGGTATATAAGGGTAGAATGGTCATCGGAGTCACCTAGTGCAG,8450 fluorescence intensity (a.u.)
18,GCTTTGTTTTCCTTGCTAGCCGGTGCTGTAGCATTTGCATCGGAGTCACCTAGTGCAG,9210 fluorescence intensity (a.u.)
19,ATATGTCTACTTTGACTTTGGATTCACTTTACACAAAATTCGGAGTCACCTAGTGCAG,8480 fluorescence intensity (a.u.)
20,TCTTCACCGGTTACCATTTCATATCCCGATCGCTGCTACTCGGAGTCACCTAGTGCAG,13200 fluorescence intensity (a.u.)
21,TACATATAAAACGCTCGCCGCCGTTCGCCATTCGTTTCCACGGAGTCACCTAGTGCAG,9080 fluorescence intensity (a.u.)
